PubChem BioAssay AID1053208, Peter MacCallum Cancer Centre | 2014

Screen: 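Find knock-downs that sensitise mouse osteosarcoma cells to doxorubicin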 (primary screen)
Cell system: mouse osteosarcoma cells, early-passage culture from an engineered mouse model of fibroblastic bone tumour
Reagent: siRNA pool against mouse genes, 40 nM
Duration: about 120 h (48 h before drug, then 72 h with drug)
Challenge: doxorubicin 100 nM for 72 h, roughly 30-40% inhibitory dose
Measurement: 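Viability read as ATP luminescence after 72 h of 100 nM doxorubicin or none, duplicate wells averaged, scaled to non-targeting siRNA, then expressed as robust z-scores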
Scale: viability z-score with doxorubicin and doxorubicin viability vs non-targeting: higher = more viable cells under doxorubicin; viability z-score without drug: higher = more viable cells with knock-down alone; z-score of drug to no-drug ratio: higher = less drug sensitisation by knock-down
Hit rule: 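Called active if knock-down leaves viability unchanged without drug (z within -2 to 2) but lowers it with doxorubicin (z at or under -2)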
This is a random part of about 17,000 reagents. 788 of all reagents (4.7%) were called active. 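Calls rest on z-score classes alone; an extra cut-off of viability at most 70% of control was not applied to them.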

gene	combined z-score class	viability z-score with doxorubicin	viability z-score without drug	z-score of drug to no-drug ratio	doxorubicin viability vs non-targeting	call
Ifrd1	no change with or without drug	-0.56	0.51	-0.79	0.89	inactive
Pax6	no change with or without drug	-0.11	0.51	-0.34	0.93	inactive
Nelfcd	high cell count with doxorubicin only	3.04	1.18	2.36	1.21	inactive
Cd274	high cell count without drug only	-0.22	2.19	-1.46	0.92	inactive
3110070M22Rik	no change with or without drug	1.12	0	1.24	1.04	inactive
Agbl3	no change with or without drug	0.67	0.34	0.56	1	inactive
Trpc4ap	no change with or without drug	-1.12	-0.84	-0.56	0.84	inactive
Duoxa1	no change with or without drug	0.9	-0.34	1.35	1.02	inactive
Chmp2a	low cell count with and without drug	-8.32	-8.43	-6.07	0.2	inactive
Taf5	no change with or without drug	-1.35	-1.52	-0.34	0.82	inactive
Dnajc1	no change with or without drug	0.56	-0.17	0.79	0.99	inactive
Spinkl	high cell count with doxorubicin only	2.02	-0.17	2.36	1.12	inactive
Dlg2	no change with or without drug	-0.22	-0.34	0.11	0.92	inactive
Gipr	no change with or without drug	0.22	0	0.34	0.96	inactive
Foxc2	no change with or without drug	-0.11	1.35	-0.9	0.93	inactive
St8sia6	no change with or without drug	0	-0.51	0.45	0.94	inactive
Ier3ip1	no change with or without drug	-0.22	0.51	-0.45	0.92	inactive
Zfp287	no change with or without drug	0.45	0.17	0.45	0.98	inactive
Txn1	low cell count with doxorubicin only	-2.7	-1.69	-1.8	0.7	active

Limited to “z-score of drug to no-drug ratio”, for 6 of the entries above:
Cd274	-1.46
3110070M22Rik	1.24
Agbl3	0.56
Trpc4ap	-0.56
Duoxa1	1.35
Chmp2a	-6.07

Further reagents follow:
gene	combined z-score class	viability z-score with doxorubicin	viability z-score without drug	z-score of drug to no-drug ratio	doxorubicin viability vs non-targeting	call
Sst	no change with or without drug	1.57	-0.17	1.91	1.08	inactive
Scml2	no change with or without drug	-1.35	0	-1.35	0.82	inactive
Kdm5d	no change with or without drug	-0.56	1.52	-1.35	0.89	inactive
Trpc7	no change with or without drug	-1.35	-1.18	-0.56	0.82	inactive
Impdh2	no change with or without drug	-0.45	-1.01	0.34	0.9	inactive
Krtap26-1	no change with or without drug	0.67	0.34	0.56	1	inactive
Tmem54	high cell count with and without drug	2.14	2.36	0.67	1.13	inactive
Bche	low cell count without drug only	-0.22	-2.7	2.02	0.92	inactive
Ap1s3	no change with or without drug	0.56	0.67	0.22	0.99	inactive
Utrn	no change with or without drug	-0.22	-0.34	0.11	0.92	inactive
Rnasek	no change with or without drug	0.45	1.85	-0.67	0.98	inactive
Abcc6	no change with or without drug	-1.24	-0.51	-0.9	0.83	inactive
Or1o11	no change with or without drug	-0.67	0	-0.56	0.88	inactive
Nuak1	no change with or without drug	-0.9	-0.51	-0.56	0.86	inactive
Mark1	no change with or without drug	1.57	-0.34	2.02	1.08	inactive
Tmem82	no change with or without drug	-1.12	1.01	-1.69	0.84	inactive
Gps2	no change with or without drug	1.69	1.35	0.9	1.09	inactive
Scand1	high cell count without drug only	0	2.02	-1.12	0.94	inactive
Tuba4a	no change with or without drug	0.22	-0.84	1.01	0.96	inactive
Serpinh1	no change with or without drug	1.35	1.85	0.22	1.06	inactive
Cdkn2a	no change with or without drug	-0.56	-0.84	0.11	0.89	inactive
Lpin2	no change with or without drug	-1.8	-1.52	-0.79	0.78	inactive
Cd59b	low cell count with and without drug	-2.02	-2.53	-0.34	0.76	inactive
Tpm3	no change with or without drug	-0.56	-0.34	-0.22	0.89	inactive
Zfp106	no change with or without drug	-0.79	-1.01	0	0.87	inactive
Parp3	no change with or without drug	1.12	0.51	0.9	1.04	inactive
Smpx	no change with or without drug	0.56	-0.17	0.79	0.99	inactive
Ca15	no change with or without drug	-0.67	-0.51	-0.22	0.88	inactive
Pcdhb8	high cell count with doxorubicin only	2.59	1.18	1.91	1.17	inactive
Kcne1	no change with or without drug	1.35	0.84	0.9	1.06	inactive
Obp2a	no change with or without drug	1.57	0.17	1.69	1.08	inactive
